The list shows only some results of the screen, not a fair sample: it is rich in T/C values a quarter to a half above the control, in often repeated tests (any T/C) and in doses without a T/C. Other doses and runs of a compound stand elsewhere. T/C is the treated group as % of the vehicle group. Schedules are NCI's codes, taken here to give the interval after Q, in days (D) or hours (H), and the number of doses after X. Some T/C values carry the count of animals alive at the toxicity check (mostly the fifth day); without a count, all were alive then. Some doses have a count of surviving animals in place of a T/C: the source holds a T/C of zero for them, seemingly a mark for toxic or unscored doses. Survivors were counted at the toxicity check, usually on the fifth day, unless a day is given; later deaths do not show. Some entries were tested several times; the values are given in rising order.
System: CD8F1 mice, subcutaneous mammary adenocarcinoma, T/C%
Assay: NCI In Vivo Anticancer Drug Screen. Data for tumor model Mammary Adenocarcinoma CD8F1 (subcutaneous) in CD8F1
Settings: higher T/C = larger tumour
Summary of the method: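 Mice carrying transplanted tumors received test compound, and survival or tumor size was recorded. Each value is the treated-group measurement divided by the corresponding measurement in vehicle-dosed controls.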

[1] = T/C endpoint: median tumor weight (est.), dose: 100.0 mg/kg/injection, schedule: Q07DX005 (ip), vehicle: saline with Tween-80, evaluated on day 30
[2] = T/C endpoint: median tumor weight (est.), dose: 400.0 mg/kg/injection, schedule: Q07DX005 (ip), vehicle: Klucel (hydroxypropylcellulose) (HPC)

NCCc1ccc(O)c(O)c1
survivor count (T/C endpoint: mean tumor weight, dose: 150.0 mg/kg/injection, schedule: Q07DX005 (ip), vehicle: saline): 3 of 6
T/C (T/C endpoint: median tumor weight (est.), dose: 50.0 mg/kg/injection, schedule: Q07DX005 (ip), vehicle: saline, evaluated on day 30): 144 % of control [7 of 10 alive]
survivor count (T/C endpoint: median tumor weight (est.), dose: 150.0 mg/kg/injection, schedule: Q07DX005 (ip), vehicle: saline): 3 of 6
T/C (T/C endpoint: median tumor weight (est.), dose: 200.0 mg/kg/injection, schedule: Q07DX005 (ip), vehicle: saline, evaluated on day 32): 141 % of control [7 of 10 alive]
survivor count (T/C endpoint: median tumor weight (est.), dose: 600.0 mg/kg/injection, schedule: Q07DX005 (ip), vehicle: saline): 3 of 6

COC1=C(C)C(=O)C2=C(C1=O)C1C3CC4=C(C(=O)C(OC)=C(C)C4=O)C(CNC(=O)C(C)=O)N3C(C#N)C(C2)N1C (stereo not given)
T/C (T/C endpoint: median tumor weight change, dose: 0.31 mg/kg/injection, schedule: Q01DX001 (ip), vehicle: Klucel (hydroxypropylcellulose) (HPC), evaluated on day 36): 128 % of control
T/C (T/C endpoint: median tumor weight change, dose: 5.0 mg/kg/injection, schedule: Q01DX001 (ip), vehicle: Klucel (hydroxypropylcellulose) (HPC), evaluated on day 36): 147 % of control [8 of 10 alive on day 36]
survivor count (T/C endpoint: median tumor weight change, dose: 5.0 mg/kg/injection, schedule: Q01DX001 (ip), vehicle: Klucel (hydroxypropylcellulose) (HPC)): 0 of 10 on day 29

Nc1ncn(C2OC(CO)C(O)C2O)c(=O)n1 (stereo not given)
survivor count (T/C endpoint: median tumor weight (est.), dose: 32.0 mg/kg/injection, schedule: Q07DX005 (ip), vehicle: saline): 5 of 10
survivor count (T/C endpoint: median tumor weight (est.), dose: 32.0 mg/kg/injection, schedule: Q07DX005 (ip), vehicle: suspension in saline): 5 of 10
survivor count (T/C endpoint: median tumor weight (est.), dose: 64.0 mg/kg/injection, schedule: Q07DX005 (ip), vehicle: suspension in saline): 4 of 10
survivor count (T/C endpoint: median tumor weight (est.), dose: 128.0 mg/kg/injection, schedule: Q07DX005 (ip), vehicle: suspension in saline): 4 of 10
survivor count (T/C endpoint: median tumor weight change, dose: 135.0 mg/kg/injection, schedule: Q01DX001 (ip), vehicle: saline): 6 of 10 on day 36

Clc1ccc(CN2COc3c(ccc4cccnc34)C2)cc1Cl
T/C [1]: 137 % of control
survivor count (T/C endpoint: median tumor weight (est.), dose: 800.0 mg/kg/injection, schedule: Q07DX005 (ip), vehicle: saline with Tween-80): 1 of 10 on day 30

O=C1c2c(O)ccc(O)c2C(=O)c2c(NCCNCCO)ccc(NCCNCCO)c21
T/C (T/C endpoint: median tumor weight (est.), dose: 2.0 mg/kg/injection, schedule: Q07DX005 (ip), vehicle: water, evaluated on day 30): 127 % of control
survivor count (T/C endpoint: median tumor weight (est.), dose: 4.0 mg/kg/injection, schedule: Q07DX005 (ip), vehicle: water): 0 of 10 on day 30

CCOC(=O)Nc1cc2c(c(N)n1)N=C(CN(C)c1ccccc1)CN2
survivor count (T/C endpoint: median tumor weight (est.), dose: 50.0 mg/kg/injection, schedule: Q07DX005 (ip), vehicle: Klucel (hydroxypropylcellulose) (HPC)): 1 of 10 on day 30
survivor count (T/C endpoint: median tumor weight (est.), dose: 100.0 mg/kg/injection, schedule: Q07DX005 (ip), vehicle: Klucel (hydroxypropylcellulose) (HPC)): 0 of 10 on day 30 and 1 of 10 on day 30
survivor count (T/C endpoint: median tumor weight (est.), dose: 200.0 mg/kg/injection, schedule: Q07DX005 (ip), vehicle: Klucel (hydroxypropylcellulose) (HPC)): 0 of 10 on day 30
survivor count [2]: 0 of 10 on day 30

O=C(NP(=O)(N1CC1)N1CC1)c1cc(I)ccc1I
survivor count (T/C endpoint: median tumor weight (est.), dose: 256.0 mg/kg/injection, schedule: Q07DX005 (ip), vehicle: saline with Tween-80): 4 of 10

Cc1[nH]c(=O)[nH]c(=O)c1N(CCF)CCCl
survivor count (T/C endpoint: median tumor weight (est.), dose: 40.0 mg/kg/injection, schedule: Q07DX005 (ip), vehicle: Klucel (hydroxypropylcellulose) (HPC)): 5 of 9 on day 30
survivor count (T/C endpoint: median tumor weight (est.), dose: 80.0 mg/kg/injection, schedule: Q07DX005 (ip), vehicle: Klucel (hydroxypropylcellulose) (HPC)): 0 of 9 on day 30
survivor count (T/C endpoint: median tumor weight change, dose: 100.0 mg/kg/injection, schedule: Q01DX001 (ip), vehicle: Klucel (hydroxypropylcellulose) (HPC)): 1 of 10 on day 28 and 5 of 10 on day 30
survivor count (T/C endpoint: median tumor weight change, dose: 200.0 mg/kg/injection, schedule: Q01DX001 (ip), vehicle: Klucel (hydroxypropylcellulose) (HPC)): 0 of 10 on day 28, 0 of 10 on day 30, 1 of 10 on day 28
survivor count (T/C endpoint: median tumor weight change, dose: 400.0 mg/kg/injection, schedule: Q01DX001 (ip), vehicle: Klucel (hydroxypropylcellulose) (HPC)): 0 of 10 on day 30

Cc1cc(NCCCN(C)C)c2ccc3c(ccc4c(NCCCN(C)C)cc(C)nc43)c2n1
survivor count (T/C endpoint: median tumor weight change, dose: 15.62 mg/kg/injection, schedule: Q01DX001 (ip), vehicle: saline): 3 of 10 on day 33
survivor count (T/C endpoint: median tumor weight change, dose: 31.25 mg/kg/injection, schedule: Q01DX001 (ip), vehicle: saline): 1 of 10 on day 33 and 2 of 10 on day 31
survivor count (T/C endpoint: median tumor weight change, dose: 62.5 mg/kg/injection, schedule: Q01DX001 (ip), vehicle: saline): 0 of 10 on day 31
survivor count (T/C endpoint: median tumor weight change, dose: 125.0 mg/kg/injection, schedule: Q01DX001 (ip), vehicle: saline): 0 of 10 on day 31
survivor count (T/C endpoint: median tumor weight change, dose: 250.0 mg/kg/injection, schedule: Q01DX001 (ip), vehicle: saline): 0 of 10 on day 31
survivor count (T/C endpoint: median tumor weight change, dose: 500.0 mg/kg/injection, schedule: Q01DX001 (ip), vehicle: saline): 0 of 10 on day 31

COC(=O)C[C@](O)(CCC(C)(C)O)C(=O)O[C@@H]1C(OC)=C[C@]23CCCN2CCc2cc4c(cc2[C@H]13)OCO4
survivor count (T/C endpoint: median tumor weight change, dose: 10.0 mg/kg/injection, schedule: Q01DX001 (ip), vehicle: saline): 4 of 10 on day 35
survivor count (T/C endpoint: median tumor weight change, dose: 20.0 mg/kg/injection, schedule: Q01DX001 (ip), vehicle: saline): 0 of 10 on day 35 and 1 of 10 on day 28

CS(=O)(=O)Nc1ccc(C(=O)CCN2CCCCCC2)cc1
survivor count (T/C endpoint: median tumor weight change, dose: 1000.0 mg/kg/injection, schedule: Q01DX001 (ip), vehicle: suspension in saline): 6 of 10 on day 29
survivor count (T/C endpoint: median tumor weight change, dose: 2000.0 mg/kg/injection, schedule: Q01DX001 (ip), vehicle: suspension in saline): 6 of 10 on day 29

CC1(CO)C(O)CCC2(C)C1CCC1CC3CC12CCC3(O)CO (stereo not given)
T/C (T/C endpoint: median tumor weight (est.), dose: 75.0 mg/kg/injection, schedule: Q07DX005 (ip), vehicle: saline with Tween-80, evaluated on day 30): 147 % of control
T/C (T/C endpoint: median tumor weight (est.), dose: 150.0 mg/kg/injection, schedule: Q07DX005 (ip), vehicle: saline with Tween-80, evaluated on day 30): 147 % of control [5 of 6 alive]

CN=C(N)N/N=C(\C)c1ccc2oc3ccc(/C(C)=N/NC(N)=NC)cc3c2c1
survivor count (T/C endpoint: median tumor weight change, dose: 250.0 mg/kg/injection, schedule: Q01DX001 (ip), vehicle: saline with Tween-80): 0 of 10 on day 38
survivor count (T/C endpoint: median tumor weight change, dose: 500.0 mg/kg/injection, schedule: Q01DX001 (ip), vehicle: saline with Tween-80): 0 of 10 on day 38
survivor count (T/C endpoint: median tumor weight change, dose: 1000.0 mg/kg/injection, schedule: Q01DX001 (ip), vehicle: saline with Tween-80): 0 of 10 on day 38

Brc1ccc(C[N+]23CN4CN(CN(C4)C2)C3)cc1
T/C (T/C endpoint: median tumor weight (est.), dose: 12.5 mg/kg/injection, schedule: Q07DX005 (ip), vehicle: saline with Tween-80, evaluated on day 30): 132 % of control
T/C (T/C endpoint: median tumor weight (est.), dose: 200.0 mg/kg/injection, schedule: Q07DX005 (ip), vehicle: saline with Tween-80, evaluated on day 30): 138 % of control [8 of 10 alive]

CCC(CC)COC(=O)c1ccccc1C(=O)OCC(CC)CC
T/C (T/C endpoint: median tumor weight (est.), dose: 50.0 mg/kg/injection, schedule: Q07DX005 (ip), vehicle: saline with Tween-80, evaluated on day 30): 132 % of control
T/C [1]: 126 % of control

C=C(C)C(=O)OC1C/C(CO)=C\C(O)C/C(C)=C/C2OC(=O)C(=C)C21 (stereo not given)
survivor count (T/C endpoint: median tumor weight change, dose: 200.0 mg/kg/injection, schedule: Q01DX001 (ip), vehicle: saline + alcohol): 4 of 10 on day 32

CN(C)N=Nc1cn[nH]c1C(N)=O
survivor count [2]: 0 of 10 on day 30
survivor count (T/C endpoint: median tumor weight (est.), dose: 800.0 mg/kg/injection, schedule: Q07DX005 (ip), vehicle: Klucel (hydroxypropylcellulose) (HPC)): 0 of 10 on day 30

Cc1cc2nc3c(=O)[nH]c(=O)nc-3n(CC(O)C(O)C(O)C(O)CO)c2cc1C (stereo not given)
T/C (T/C endpoint: median tumor weight (est.), dose: 50.0 mg/kg/injection, schedule: Q07DX005 (ip), vehicle: suspension in saline, evaluated on day 30): 131 % of control
survivor count (T/C endpoint: median tumor weight (est.), dose: 1600.0 mg/kg/injection, schedule: Q07DX005 (ip), vehicle: suspension in saline): 2 of 10 on day 30

CO[C@@H]1[C@H](O)CC[C@]2(CO2)[C@H]1[C@@]1(C)O[C@@H]1CC=C(C)C
T/C (T/C endpoint: median tumor weight change, dose: 15.6 mg/kg/injection, schedule: Q01DX001 (ip), vehicle: saline with Tween-80, evaluated on day 28): 130 % of control

CCCC(=O)O.CCCC(=O)O.CCCC(=O)O.CCCC(=O)O.[Rh].[Rh]
T/C (T/C endpoint: median tumor weight change, dose: 0.62 mg/kg/injection, schedule: Q01DX001 (ip), vehicle: saline + alcohol, evaluated on day 29): 128 % of control
survivor count (T/C endpoint: median tumor weight change, dose: 2.5 mg/kg/injection, schedule: Q01DX001 (ip), vehicle: saline + alcohol): 5 of 10 on day 29
survivor count (T/C endpoint: median tumor weight change, dose: 5.0 mg/kg/injection, schedule: Q01DX001 (ip), vehicle: saline + alcohol): 0 of 10 on day 29

Reference: PubChem BioAssay AID220 (DTP/NCI, 2004)
